# From PubChem BioAssay AID1347423 (Functional Genomics Laboratory (NCATS/FGL), 2020)
# Hit rate of the full screen: of about 52,000 sequences, about 210 (0.4%) were called active.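 How the source made its calls: active means gene whose silencing raises cell survival under the drug, median off-target-corrected z-score across its silencing RNAs 2 or more; inactive means the rest.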 This is one part of the list.
# Test: Resistance to Poly (ADP-Ribose) Polymerase inhibitor: Gene Identification via Genome-wide siRNA Screen
# Settings: mouse BRCA2 R2336H ES cells, olaparib, CellTiter-Glo viability; hits give high values
# Method in brief: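 Mouse BRCA2 R2336H ES cells were reverse-transfected with siRNA (20 nM final), treated at 48 h with 500 nM olaparib, and read by CellTiter-Glo after 72 h. Scores: MAD-based z per siRNA, median per gene, seed off-target correction.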
row,Sequence,z-score
1,CCUUGUGAUUGACGAGUGUTT against Snrpg,inactive: -2.72
2,GGAAGAGAGCCUCUGCCAATT against Ccnb2,inactive: -1.39
3,CGUCUGUCAGAAACUACACTT against Atrnl,inactive: -1.01
4,GCCUUAACCGCCAGAUGUCTT against 2900026A02Rik,inactive: -0.861
5,GAAACUUAGGGAAACACUATT against Cutl1,inactive: -0.929
6,GGCUGAGGAAUCAAAAUGUTT against Mdh1,inactive: 2.03
7,GGUAAAGCCUUUCAGGAAGTT against 5530601I19Rik,inactive: 0.617
8,CCGGGACAAGAAUUUCCUCTT against Xylt2,inactive: 0.824
9,GGAUGUCCAUCAUAUUAAGTT against 4921530G04Rik,inactive: -0.0751
10,GGUGAUGAAAUUUAUUGAGTT against Xab1,inactive: 0.391
11,GGUGGAAAAAUAUUCUGCATT against Kcnk2,inactive: -0.96
12,GCUACUUGUUGAGACCCAATT against Esr1,inactive: -1.09
13,GGAGAAGAAAAAUCUCUCCTT against 1700009P13Rik,inactive: 0.593
14,GGAGGAUUGAGCAGUGUCUTT against Otos,inactive: 0.208
15,GGCGACAAAAAGGCUAAGCTT against 9130227C08Rik,inactive: -0.275
16,GCCUCAGCAAGUGUUAGAUTT against Mtap4,inactive: -0.34
17,GGACGAACCUUUAUACCAGTT against Arhgef15,inactive: -1.21
18,CCUCUGUCUGCUAAUAAGATT against C030046I01Rik,inactive: -0.715
19,GACAGAGGAAUUUGUCUCCTT against Olfr1120,inactive: 0.643
20,GGCCAUGUAUGGAGAUUACTT against 1100001G20Rik,inactive: -0.276
21,GGAUCUGACAAGGUACAAGTT against C730027J19Rik,inactive: 1.8
22,GGUCGACAGACUCUUGCAUTT against D830007F02Rik,inactive: 1.99
23,GUGUUCACCUGACUUUCCCTT against LOC235779,inactive: -1.57
24,GGUUGUAGAAGAUGGCUAUTT against Ppp1ca,inactive: -0.286
25,GGAAGGAAACUACGAAGGUTT against Edn1,inactive: -0.352
26,GCAAAGGAUCGCUUGAAAATT against Mrpl40,inactive: -0.347

row,Sequence,z-score
1,GGCUGUGCAAGAUGUUCUATT against Gpr27,inactive: 1.71
2,GGAGAAUUUGAAGCAACCUTT against Crsp2,inactive: -1.93
3,GGGUAACAGUGCCUUUACUTT against Tnrc11,inactive: 1.65
4,GGUACAUGAUUACCAGCCUTT against Sdk2,inactive: -0.104
5,GCCCUAUAUGUACCAAGUGTT against Mmp14,inactive: 0.788
6,CCCUAUACACAAGAUGAACTT against Cd96,inactive: 1.47
7,GGGUAGGUCCUUUGUAACCTT against Pcdhb16,inactive: 0.505
8,GGGAACUCGACAAAGAAAUTT against 4930529M08Rik,inactive: 0.522
9,GCUUAGUGACAUUCAAUCATT against Pde1c,inactive: -0.0664
10,CGACAAUGAAUUCAAUGGGTT against 4930570C03Rik,inactive: 0.0205
11,GGACUAUUCACAAAGAAGATT against Dusp11,inactive: 0.0931
12,GGGAGUCCCAAUUGUGUGCTT against Gpr88,inactive: -0.537
13,GGACUUCUCUGGGACUUCATT against Syt9,inactive: -0.782
14,GGAAUCUUUAUCCACAUUCTT against 4631426J05Rik,inactive: 0.461
15,GGAAAUAGAAACAACAGGATT against Nos2,inactive: -0.212
16,GGGUCAGUGUGGAGAGUACTT against Col13a1,inactive: -0.9
17,GGAAGAAAACACUUGGUUUTT against Cant1,inactive: 1.87
18,GCCGCACAUGCCUACAGAATT against 2900092E17Rik,inactive: -0.809
19,GGUGCAAAUAAACAACAGATT against Zfpl1,inactive: 0.308
20,GGACGAUUACAUCCUUUUUTT against A930018B01Rik,inactive: -0.0195
21,GGCCAUGGUACACAAUGGUTT against BC027556,inactive: -0.105
22,GGCAAGUGAGGAAAAGAGGTT against BC010250,inactive: -0.0762
23,UAGGCGGGAAGGCAUUUUCTT against Gngt1,inactive: -0.0138
24,CGCCCACCAGAAUAUAUAUTT against Il4i1,inactive: -1.32
25,GCUUGUUCACCCAGUUAUGTT against MGC78289,inactive: 0.265
26,GGAUUAUGGUACCAAGCGCTT against Umps,inactive: 1.95

row,Sequence,z-score
1,GCACAGCUCAACGAAUUGGTT against Otp,inactive: -0.00861
2,GGCAGAAUCUGCUUUAGUUTT against 2700078K21Rik,inactive: 1.02
3,GCGUGUACAAGGCUAUUCATT against Stk4,inactive: -1.68
4,GGAGAUGUUGCCAAAAACUTT against Sprr2d,inactive: 0.879
5,GGGAAAUUGUGUAGCAGCUTT against Slc25a29,inactive: 0.214
6,GGUUAAAGUCCUUCAGUAUTT against Tubb3,inactive: -0.338
7,GGCAAAGAGCAAAAUUUUATT against Rap2b,inactive: 0.937
8,GGCUUCAUAUUCUUUUCCCTT against Il31ra,inactive: 0.657
9,CCUUUAGUUUACAGUAAGCTT against H2-M10.1,inactive: 0.6
10,CCUCCAUCGUAUUUGACAUTT against Slc29a4,inactive: 0.352
11,GGGACAAUAACACUGUGUCTT against Slc11a1,inactive: -1.23
12,GCUAUUCGAAUUCAUGCAUTT against Xpo1,inactive: -1.72
13,GGCAUGUGCUACUUACAUGTT against Ripk1,inactive: -0.658
14,GUCCCACACUGAUAAGAUUTT against Mlr1,inactive: 1.96
15,GGUAGUGAAAUUCUUAAAGTT against Snx10,inactive: 0.485
16,GGAACAGGAAUAACAUGACTT against V1re9,inactive: 1.65
17,CGGACAAUGCAGGUUCAUCTT against Negr1,inactive: -0.664
18,GGAGACACUUACAUGCACGTT against Antxr1,inactive: -0.451
19,GCUACAUUUACAAUGGAUUTT against 9930021J17Rik,inactive: -0.269
20,CGCGAAUAAACCAUUUCUGTT against A130023I24Rik,inactive: -0.618
21,GCUACAGAACCUGCUCUACTT against Fmip,inactive: -2.68
22,GCUGCACUUGAAAUCCGAGTT against C630028L02Rik,inactive: 1.69
23,GGCAGACAGUGAGAUGACATT against Mapk12,inactive: -1.89
24,GGUAUUCUGGCAAGACCACTT against Aatf,inactive: -1.01
25,GGGAAGUAUUCUGAAAUCUTT against Tsga13,inactive: 0.437
26,GGUAUCUUGCUUUCUGUGATT against Olfr847,inactive: 0.00478

# Copied from the listing (31 entries):
row,Sequence,z-score
6,CCCUAUACACAAGAUGAACTT against Cd96,inactive: 1.47
7,GGGUAGGUCCUUUGUAACCTT against Pcdhb16,inactive: 0.505
8,GGGAACUCGACAAAGAAAUTT against 4930529M08Rik,inactive: 0.522
9,GCUUAGUGACAUUCAAUCATT against Pde1c,inactive: -0.0664
10,CGACAAUGAAUUCAAUGGGTT against 4930570C03Rik,inactive: 0.0205
11,GGACUAUUCACAAAGAAGATT against Dusp11,inactive: 0.0931
12,GGGAGUCCCAAUUGUGUGCTT against Gpr88,inactive: -0.537
13,GGACUUCUCUGGGACUUCATT against Syt9,inactive: -0.782
14,GGAAUCUUUAUCCACAUUCTT against 4631426J05Rik,inactive: 0.461
15,GGAAAUAGAAACAACAGGATT against Nos2,inactive: -0.212
16,GGGUCAGUGUGGAGAGUACTT against Col13a1,inactive: -0.9
17,GGAAGAAAACACUUGGUUUTT against Cant1,inactive: 1.87
18,GCCGCACAUGCCUACAGAATT against 2900092E17Rik,inactive: -0.809
19,GGUGCAAAUAAACAACAGATT against Zfpl1,inactive: 0.308
20,GGACGAUUACAUCCUUUUUTT against A930018B01Rik,inactive: -0.0195
21,GGCCAUGGUACACAAUGGUTT against BC027556,inactive: -0.105
22,GGCAAGUGAGGAAAAGAGGTT against BC010250,inactive: -0.0762
23,UAGGCGGGAAGGCAUUUUCTT against Gngt1,inactive: -0.0138
24,CGCCCACCAGAAUAUAUAUTT against Il4i1,inactive: -1.32
25,GCUUGUUCACCCAGUUAUGTT against MGC78289,inactive: 0.265
26,GGAUUAUGGUACCAAGCGCTT against Umps,inactive: 1.95
1,GCACAGCUCAACGAAUUGGTT against Otp,inactive: -0.00861
2,GGCAGAAUCUGCUUUAGUUTT against 2700078K21Rik,inactive: 1.02
3,GCGUGUACAAGGCUAUUCATT against Stk4,inactive: -1.68
4,GGAGAUGUUGCCAAAAACUTT against Sprr2d,inactive: 0.879
5,GGGAAAUUGUGUAGCAGCUTT against Slc25a29,inactive: 0.214
6,GGUUAAAGUCCUUCAGUAUTT against Tubb3,inactive: -0.338
7,GGCAAAGAGCAAAAUUUUATT against Rap2b,inactive: 0.937
8,GGCUUCAUAUUCUUUUCCCTT against Il31ra,inactive: 0.657
9,CCUUUAGUUUACAGUAAGCTT against H2-M10.1,inactive: 0.6
10,CCUCCAUCGUAUUUGACAUTT against Slc29a4,inactive: 0.352

# More entries follow:

row,Sequence,z-score
1,GGAGGUGAGUAGUAUAGAATT against Pigr,inactive: -1.61
2,GCUCUUCCAACCACCUGUATT against Rtn4rl2,inactive: -1.08
3,GGUUGUUUUGCACAAAUGUTT against Olfr512,inactive: 0.754
4,GGAUUUUCAAAGAGGACACTT against BC006933,inactive: 0.609
5,GAUGUCGAUGCAAAUUCAATT against Fxyd1,inactive: 0.94
6,GGUUUUCUUAAAAUAGGAGTT against Tat,active: 3.69
7,GGCACACGGUUUUCAUUAATT against Pcdhb5,inactive: -0.354
8,GGCUGACAGACAAGAUUGUTT against Tfb1m,inactive: 1.83
9,GGAACAGACAGAGAACACATT against Tgm6,inactive: -0.154
10,GGGUCAUGAAACCUACCUUTT against 0610007P06Rik,inactive: -1.02
11,GGAGCACCUUCAGAAAGUUTT against Commd5,inactive: -1.67
12,GCAUCGACAGUCUCUUCAUTT against Grinl1a,inactive: -0.258
13,CCGACUAAUGCUAAAUCCATT against Nspc1,inactive: -0.573
14,GGCAUCUGCAUUUGAUUAUTT against BC025546,inactive: -0.464
15,GGCAAAAACGCGAUGAAGATT against Sync,inactive: -0.38
16,GGAAUGUCUCUCUGAAAUATT against Greb1,inactive: 0.619
17,GGAGAAUGACAAGAACUGCTT against Asah3,inactive: 0.639
18,GGAACUGGUGUCAUCUACATT against M6prbp1,inactive: -1.68
19,GGCAAAUCUGAACAACAUUTT against Agt,inactive: -0.2
20,GGUUCCUUAUUGGUUUCAGTT against Fpr-rs2,inactive: 0.0955
21,GGCUUUGAACACCAGUGAATT against Rpp21,inactive: -0.285
22,GCAGCUUGCUUGAUUCAAGTT against Iqcb1,inactive: 0.815
23,GGCCCUGUGUCAAAUCAGUTT against 3110005P07Rik,inactive: 0.151
24,GCCACAGGUAUGAGAAUGATT against C130068O12Rik,inactive: -0.208
25,GGCAUCUAUUUCUGUGUCUTT against Rdh5,inactive: -0.437
26,GGAUCCAUAAUGUGCAAAATT against Musk,inactive: 0.701
